# Several values for one entry are separate records, joined by “and”; a condition that tells them apart may be missing. Equal entries are not always repeated. At least one read-out could not be matched to a standard name with certainty.
# System: HEK293T cells
# Experiment: Translation efficiency of different capped luciferase mRNAs
# Assay type: cell-based
# Settings: 0.5 μg mRNA per well, 24 hours, proportional to translation efficiency
# Method: • (1) HEK293T cells were cultured in DMEM medium containing 10% FBS and penicillin/streptomycin at 37° C. with 5% CO2. • (2)Cells in the culture dish were digested and counted, then spread in a 96-well plate at 10,000 cells per well, and cultured overnight until the cells adhered to the wall. • (3) When the cell density reached approximately 80%, transfection was performed by adding 0.5 μg of mRNA sample and Lipofectamine MessengerMAX Transfection Reagent (Invitrogen) per well according to the manufacturer's instructions. • (4) After the transfected cells were cultured at 37° C. with 5% CO2 for 24 hours, the growth medium was removed from the cells to be tested, and the cells were rinsed with PBS. After centrifugation to remove PBS, 50 μL of 1× lysis buffer was added. The cells and all liquid were transferred to a microcentrifuge tube and centrifuged. • (5) 20 μL of sample was taken and added to 100 μL of Dual-Lumi™ II Luciferase Assay Reagent pre-equilibrated to room temperature, and mixed appropriately. • (6) The mixture was incubated at room temperature (approximately 25° C.) for 5 minutes to stabilize the luminescence signal. Chemiluminescence was detected using a multifunctional microplate reader with a function for detecting chemiluminescence, and the data were recorded.
# The relative fluorescence intensity is proportional to the translation efficiency of mRNA.
structure (smiles),measurement,value
"COC[C@H]1[C@@H](O)[C@H]([n+]2cn(C)c3c(=O)[nH]c(N)nc32)O[C@@H]1COP(=O)(O)OP(=O)(O)OP(=O)(O)OC[C@H]1O[C@@H](n2cnc3c(N)ncnc32)[C@H](OC)[C@@H]1OP(=O)(O)OC[C@H]1O[C@@H](n2cnc3c(=O)[nH]c(N)nc32)[C@H](O)[C@@H]1O [HN3002, reference compound]",Relative fluorescence intensity,1.12 and 1.13

# Source: US12576099B2, “Ribose-modified cap analog and use thereof” (Beijing Youcare Kechuang Pharmaceutical Technology Co., Ltd., priority 2024, dated 2026)
